# Results from the supplement of paper PMC10338343.
# ± gives the standard deviation. This is a selection; strong and weak results do not stand in their true shares. The uncertainty is large for many entries. Some of the results follow.
# Tests used:
# [1] = test system: MIWI (PIWIL1) piRISC loaded with L1MC piRNA (30 nt); assay: pre-steady-state target cleavage rate (min^-1); higher = faster piRNA-guided slicing of the target; conditions: guide: L1MC piRNA 5'p-UAACUAAAUACUAUGCAAGCUGUAGGUCCU
# Method in brief: (§1)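 The pre-steady-state cleavage rate was calculated from a burst-and-steady-state fit. Data came from Cleave-'n-Seq, in which […] transcribed, DNA-blocked target RNA library was mixed with 1 nM active affinity-purified piRISC carrying one synthetic guide, with or without 500 nM GTSF1 partner protein, in HEPES–potassium acetate buffer at 33 °C for 0–8 or 0–960 min. Uncleaved targets were sequenced and normalised to depth and to weakly complementary targets, three trials were pooled, and k3 was capped at 0.0001 min^-1.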
# [2] = test system: EfPiwi piRISC loaded with L1MC piRNA (26 nt); assay: pre-steady-state target cleavage rate (min^-1); guide: L1MC piRNA 5'p-UAACUAAAUACUAUGCAAGCUGUAGG; higher = faster piRNA-guided slicing of the target
# Method in brief: as §1
# [3] = test system: MILI (PIWIL2) piRISC loaded with L1MC piRNA (26 nt); assay: pre-steady-state target cleavage rate (min^-1); MIWI and MILI are mouse PIWI proteins and EfPiwi is from a freshwater sponge; tags in brackets are library labels; higher = faster piRNA-guided slicing of the target; conditions: guide: L1MC piRNA 5'p-UAACUAAAUACUAUGCAAGCUGUAGG; auxiliary factor: none (no GTSF1)
# Method in brief: as §1
# [4] = auxiliary factor: 500 nM mouse GTSF1
# [5] = auxiliary factor: none (no GTSF1)
# [6] = auxiliary factor: 500 nM Ephydatia muelleri Gtsf1
# [7] = auxiliary factor: none (no Gtsf1)
Sequence,"pre-steady-state target cleavage rate [1, 4]","pre-steady-state target cleavage rate [1, 5]","pre-steady-state target cleavage rate [2, 6]","pre-steady-state target cleavage rate [2, 7]",pre-steady-state target cleavage rate [3]
UCCUGGAUGAGCUUGCAUAGGUAUUUAGUUA,0.00131 ± 0.0075,0.00165 ± 0.0047,0.00116 ± 0.0057,0.000435 ± 0.022,–
UCCUGGAUGUGCUUGCUAGUAUUUAGUUA,0.00196 ± 0.0053,0.0014 ± 0.0044,0.00131 ± 0.0068,0.000513 ± 0.018,–
UCCUGGAUGUCCUUGCAUGUAUUUAGUUA,0.00306 ± 0.004,0.00183 ± 0.0035,0.00166 ± 0.0055,0.000499 ± 0.013,–
UCCUGGAUGAGCUUCCAUAGUAUUAAGUUA,0.00472 ± 0.0052,0.000501 ± 0.0086,0.000443 ± 0.0093,0.000256 ± 0.027,–
UCCUGGAACAGCUUGCAUUGUAAUUAGUUA,0.375 ± 0.032,0.018 ± 0.006,0.00225 ± 0.0022,0.000737 ± 0.01,–
UCCUGCUACAGCCUGCAUAGUAUUUAGUUA,0.976 ± 0.05,0.0598 ± 0.011,0.01 ± 0.0029,0.000671 ± 0.011,–
UCCUGGAUCAGGUAGCAUAGUAUUUAGUUA,0.0152 ± 0.0033,0.00289 ± 0.0022,0.00369 ± 0.0035,0.00111 ± 0.0089,–
UCCUGGAUGUCGUUGCAUAUAUUUAGUUA,0.000465 ± 0.022,0.000743 ± 0.014,0.000342 ± 0.011,0.000358 ± 0.019,–
UCCUGCUACAGCUUGCAUAGUGUUUAGUUA,0.648 ± 0.045,0.0278 ± 0.0045,0.0065 ± 0.0019,0.000362 ± 0.017,–
UCCUGGAUGUCGAAGUAUAGUAUUUAGUUA,0.00237 ± 0.0037,0.000847 ± 0.0055,0.00156 ± 0.0053,0.000605 ± 0.013,–
UCCUGGAUGUGCUUGCAAAGAAUUUAGUUA,0.00425 ± 0.0043,0.00226 ± 0.0031,0.000288 ± 0.022,0.000168 ± 0.063,–
UCCUGGAUGAGCUUGCAUAGAUAUUUAGUUA,0.00222 ± 0.0047,0.00178 ± 0.004,0.00152 ± 0.0053,0.000442 ± 0.019,–
UCCUGGAACAGCUUGCAUAGUAUUUGGUUA,0.781 ± 0.041,0.0538 ± 0.011,0.00496 ± 0.002,0.000536 ± 0.015,–
UCCUGGAUCAGCUUGCAUAGUCUUUAGUUA,0.841 ± 0.035,0.0552 ± 0.012,0.0204 ± 0.0053,0.00181 ± 0.0077,–
UCCUGGAUGUCGUUGCAUAAUAUUUAGUUA,0.00371 ± 0.0054,0.00132 ± 0.0056,0.000746 ± 0.0058,0.00062 ± 0.013,–
UCCUGGAUGUCGUUGGCAUAGUAUUUAGUUA,0.00315 ± 0.0042,0.00114 ± 0.0071,0.0014 ± 0.0063,0.00015 ± 0.063,–
UCCUGGAUGUCCUUGCAUAGUAUUGAGUUA,0.142 ± 0.031,0.00653 ± 0.0024,0.00192 ± 0.0028,0.000653 ± 0.0094,–
UCCUGGAUCACGUUGCAUAGUAUUUAGAAA,0.003 ± 0.0034,0.00201 ± 0.0029,0.00652 ± 0.0044,< 0.0001,–
UCCUGGUACUGCAUGCAUAGUAUUUAGUUA,0.556 ± 0.045,0.00786 ± 0.0024,0.0111 ± 0.0032,0.00207 ± 0.0062,–
UCCUGCUACAGCUUGGUAAGUAUUUAGUUA,0.0624 ± 0.011,0.00206 ± 0.004,0.00341 ± 0.0025,0.000989 ± 0.0066,–
UCCUGGAUGUCGUUGCAGAGUAUUUAGUUA,0.00128 ± 0.008,0.00122 ± 0.0069,0.00107 ± 0.0058,0.000417 ± 0.024,–

# Quoted from the listing.
# Entry for UCCUGGAUGUCGAAGUAUAGUAUUUAGUUA under pre-steady-state target cleavage rate [1, 5]: 0.000847 ± 0.0055
# Entry for UCCUGGAUGUCGUUGGCAUAGUAUUUAGUUA under pre-steady-state target cleavage rate [1, 5]: 0.00114 ± 0.0071
# Entry for UCCUGGAUGAGCUUCCAUAGUAUUAAGUUA under pre-steady-state target cleavage rate [2, 7]: 0.000256 ± 0.027

# Continuation:

Sequence,"pre-steady-state target cleavage rate [1, 4]","pre-steady-state target cleavage rate [1, 5]","pre-steady-state target cleavage rate [2, 6]","pre-steady-state target cleavage rate [2, 7]",pre-steady-state target cleavage rate [3]
UCCUGCUACACGAUGCAUAGUAUUUAGUAA,0.396 ± 0.032,0.003 ± 0.0038,0.00352 ± 0.0024,0.00026 ± 0.021,–
UCCUGGAUGUGCUUGCAUAGUAUUUAGGUUA,0.191 ± 0.02,0.0232 ± 0.0058,0.00262 ± 0.0021,0.000483 ± 0.024,–
UCCUGGAUGUCGAUGCAUAGUAUUUAGUAUA,0.00127 ± 0.0086,0.00194 ± 0.0045,0.00387 ± 0.0048,0.000621 ± 0.015,–
UCCUGGAUGUCCUUUCAUAGUAUUUAGUUA,0.0134 ± 0.004,0.000776 ± 0.0064,0.000887 ± 0.0029,0.000378 ± 0.016,–
UCCUGGAUGUCCUUGCUUAGUAUAUAGUUA,0.00219 ± 0.0049,0.00112 ± 0.0052,0.000902 ± 0.0065,0.000441 ± 0.014,–
UCCUGGAACAGCUUGCUUUGUAUUUAGUUA,0.0971 ± 0.011,0.00848 ± 0.0027,0.00396 ± 0.0025,0.00182 ± 0.005,–
UCCUGGAUGUCGAAGGAUAGUAUUUAGUUA,0.000216 ± 0.017,0.000358 ± 0.011,0.000208 ± 0.015,< 0.0001,–
UCCUGGAUGUCGUUGCAUAGUAUUUAGUCUA,0.00135 ± 0.0069,0.00199 ± 0.0052,0.000281 ± 0.03,0.000355 ± 0.026,–
UCCUGGAUGUCGUUGCAUAGUAUUUAGUA,0.00151 ± 0.0062,0.00275 ± 0.0036,0.00202 ± 0.0044,0.000125 ± 0.062,–
UCCUGGUACAGCUUGCAUAGUUUUUAGUAA,0.177 ± 0.037,0.0195 ± 0.0054,0.00728 ± 0.0027,0.000509 ± 0.025,–
UCCUGGAUGUCGUUGCAUAGUAUUCAGUUA,0.00267 ± 0.0047,0.00167 ± 0.0051,0.000395 ± 0.013,0.000194 ± 0.033,–
UCCUGGAUGUCGUUGCAUAGAUUUUAGUUA,0.000151 ± 0.061,0.000864 ± 0.007,0.000318 ± 0.0076,0.000162 ± 0.041,–
UCCUGGUACAGCUUGCAUAGUAAUUAGAUA,0.209 ± 0.042,0.00778 ± 0.0021,0.00477 ± 0.0031,0.000606 ± 0.011,–
UCCUGGAACAGCUUGCAAUGUAUUUAGUAA,0.146 ± 0.018,0.00598 ± 0.003,0.000357 ± 0.0089,0.000494 ± 0.013,–
UCCUGGAUGUCGUAGCAUAGUAUUUAGUUA,0.0153 ± 0.005,0.00137 ± 0.0052,0.00385 ± 0.0025,0.000651 ± 0.01,–
UCCUGGAUGUCGAAGCAAAGUAUUAAGUUA,0.000459 ± 0.022,0.000607 ± 0.013,0.000792 ± 0.0078,0.000162 ± 0.037,–
UCCUGGAUCAGCUUGCAUAGUAUUUUGAUA,0.17 ± 0.032,0.0123 ± 0.004,0.00716 ± 0.003,0.000522 ± 0.018,–
UCCUGGAUGUGGUUGCAUUGUAUUUAGUUA,0.00195 ± 0.0067,0.0016 ± 0.0064,0.00175 ± 0.005,0.000916 ± 0.013,–
UCCUGGAUGUCGAACGUAAGUAUUAAGUAA,–,–,0.000372 ± 0.018,–,0.000132 ± 0.036
UCCUGGAUGUCGUUGCAUAGUAAUUUGUUA,0.000598 ± 0.016,0.00109 ± 0.0061,0.000356 ± 0.01,0.000232 ± 0.03,–
